Laboratory results published in paper PMC10610214 (Pharmaceuticals, 2023).

System: P-gp (MDR1)
Experiment: in vitro
Conditions: dog, MDCK-MDR1
Protocol: Specifically, MDCKII-MDR1 cells (1 × 10^5 cell/cm^2) were seeded on polyester 12-well Transwell inserts (pore size: […], diameter: 12 mm, apical volume: 0.5 mL, basolateral: volume 1.5 mL) and cultured for 5–7 days to reach full differentiation as per TEER readings > 250 Ω·cm. […] After an incubation time of 2 h, samples were removed from the apical and basolateral side of the monolayer and were stored at −80 °C until further analysis.
The Papp was calculated according to the following equation (units of cm/s):(1) Papp=Va/area×time×Drugacceptor/Druginitial where “Va” is the volume in the acceptor well, “time” is the total transport time, “area” is the surface area of the membrane, “[Drug]initial” is the initial drug concentration in the AP or BL chamber, and “[Drug]acceptor” is the concentration of the drug in the acceptor chamber.
The ER was calculated using the following equation:ER = Papp, BL-AP/Papp, AP-BL(2) where “Papp, BL-AP” is the apparent permeability of basal-to-apical transport, and “Papp, AP-BL” is the apparent permeability of apical-to-basal transport.

SMILES: CN1C(=O)CN=C(c2ccccc2)c2cc(Cl)ccc21 [Diazepam, reference compound]
- Papp A→B at 2 h, 75 μM: 13.6 ± 1.7 ×10⁻⁶ cm/s
- Papp B→A at 2 h, 75 μM: 11.9 ± 1.5 ×10⁻⁶ cm/s
- efflux ratio at 2 h, 75 μM: 0.89
